Data as given in paper PMC3862573.
Results are given in words; binding and its absence hold for the method and conditions named. In cells and extracts the contact can be indirect. Some results given as binding are weak or reduced against the parent protein; the word gives no strength. For some assays here: Tags and fused reporters may be left off the sequences shown. Blank lines part the entries; values can stand above or below the molecule they belong to.

Tests used:
[1] = target: T1, rOctn2 wild type with C-terminal 3xFLAG (p3xFLAG-CMV14/OCTN2) (rat) (UniProt O70594); test: co-IP; HEK293 cells with rOctn2-3xFLAG or its deletion mutants, lysed in 150 mM NaCl, 50 mM Tris pH 7.4, 1% Nonidet P40; anti-FLAG M2 affinity agarose, elution with 3xFLAG peptide; blot for caveolin-1; clones with equal FLAG level, band intensity normalized to FLAG
T1 sequence: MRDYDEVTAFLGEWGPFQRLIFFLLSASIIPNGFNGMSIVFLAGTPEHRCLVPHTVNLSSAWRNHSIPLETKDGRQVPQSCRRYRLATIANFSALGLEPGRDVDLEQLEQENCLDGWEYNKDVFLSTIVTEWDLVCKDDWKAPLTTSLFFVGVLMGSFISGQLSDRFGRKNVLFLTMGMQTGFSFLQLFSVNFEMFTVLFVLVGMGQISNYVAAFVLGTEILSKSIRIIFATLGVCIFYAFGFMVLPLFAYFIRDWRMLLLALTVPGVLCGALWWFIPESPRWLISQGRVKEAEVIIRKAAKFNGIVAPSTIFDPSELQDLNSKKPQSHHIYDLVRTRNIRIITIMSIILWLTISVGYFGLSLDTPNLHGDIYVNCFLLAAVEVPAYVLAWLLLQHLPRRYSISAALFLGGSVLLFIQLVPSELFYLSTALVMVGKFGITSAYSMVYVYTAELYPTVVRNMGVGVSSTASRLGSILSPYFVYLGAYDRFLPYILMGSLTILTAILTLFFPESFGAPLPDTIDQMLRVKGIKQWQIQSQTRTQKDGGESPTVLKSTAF

[2] = target: T2, rOctn2 Δ447–454 with C-terminal 3xFLAG (p3xFLAG-CMV14/OCTN2-Δ447–454) (rat) (UniProt O70594); test: as above
T2 sequence: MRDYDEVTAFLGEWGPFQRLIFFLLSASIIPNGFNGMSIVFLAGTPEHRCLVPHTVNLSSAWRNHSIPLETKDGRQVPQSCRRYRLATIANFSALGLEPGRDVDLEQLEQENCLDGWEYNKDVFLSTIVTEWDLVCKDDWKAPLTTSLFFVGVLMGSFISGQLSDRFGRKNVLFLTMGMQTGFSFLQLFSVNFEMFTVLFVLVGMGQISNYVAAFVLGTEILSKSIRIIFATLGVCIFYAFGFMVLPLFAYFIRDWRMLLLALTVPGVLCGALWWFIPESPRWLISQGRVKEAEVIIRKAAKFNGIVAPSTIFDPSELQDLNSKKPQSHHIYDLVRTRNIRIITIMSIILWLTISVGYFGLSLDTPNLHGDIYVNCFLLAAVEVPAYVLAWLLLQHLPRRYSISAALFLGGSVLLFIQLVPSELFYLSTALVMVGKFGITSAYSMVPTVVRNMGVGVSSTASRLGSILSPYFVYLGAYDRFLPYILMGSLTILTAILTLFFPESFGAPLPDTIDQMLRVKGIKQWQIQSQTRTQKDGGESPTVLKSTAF

[3] = target: T3, Organic cation/carnitine transporter Octn2 (rat, endogenous in astrocytes) (rat (endogenous in astrocytes)) (UniProt O70594); test: proximity ligation; astrocytes, control or 200 nM PMA, fixed with 4% paraformaldehyde, permeabilized with 0.1% Triton X-100; one rabbit and one mouse primary antibody (1:100); fluorescence referred to number of nuclei; distance not exceeding 40 nm
T3 sequence: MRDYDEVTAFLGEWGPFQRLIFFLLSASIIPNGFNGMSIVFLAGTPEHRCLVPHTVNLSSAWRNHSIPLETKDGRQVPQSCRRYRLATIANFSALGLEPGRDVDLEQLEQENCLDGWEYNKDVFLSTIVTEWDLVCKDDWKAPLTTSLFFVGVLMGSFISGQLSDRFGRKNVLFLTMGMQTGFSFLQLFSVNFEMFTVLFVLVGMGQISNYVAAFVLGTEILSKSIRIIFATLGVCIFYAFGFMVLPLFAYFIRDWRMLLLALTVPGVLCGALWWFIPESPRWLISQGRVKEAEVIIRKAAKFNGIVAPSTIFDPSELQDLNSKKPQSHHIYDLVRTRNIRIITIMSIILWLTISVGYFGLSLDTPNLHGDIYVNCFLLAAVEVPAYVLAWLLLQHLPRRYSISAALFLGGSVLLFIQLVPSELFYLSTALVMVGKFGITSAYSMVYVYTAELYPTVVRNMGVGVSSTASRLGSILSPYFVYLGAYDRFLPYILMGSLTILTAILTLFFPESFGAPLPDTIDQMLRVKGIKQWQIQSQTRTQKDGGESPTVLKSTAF

[4] = target: T3, Organic cation/carnitine transporter Octn2 (rat, endogenous in astrocytes) (rat (endogenous in astrocytes)); test: co-IP; astrocyte homogenates, precleared, immunoprecipitated with anti-Octn2 antibody (4 µg) on Protein A Sepharose CL-4B; blots for caveolin-1 and flotillin-1; cells treated with vehicle, 200 nM PMA (30 min) or 10 µM Bis II then PMA
[5] = target: T4, Caveolin-1 (rat, endogenous in astrocytes) (rat (endogenous in astrocytes)) (UniProt P41350); test: proximity ligation; astrocytes, control or 200 nM PMA, fixed with 4% paraformaldehyde, permeabilized with 0.1% Triton X-100; one rabbit and one mouse primary antibody (1:100); fluorescence referred to number of nuclei; distance not exceeding 40 nm
T4 sequence: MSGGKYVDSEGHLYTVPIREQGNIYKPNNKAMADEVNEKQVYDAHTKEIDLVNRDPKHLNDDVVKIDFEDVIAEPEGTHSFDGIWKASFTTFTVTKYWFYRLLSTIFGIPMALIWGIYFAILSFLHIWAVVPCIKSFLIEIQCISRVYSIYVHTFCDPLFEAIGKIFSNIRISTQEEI

binding [1]: binds
binding [2]: binds
Molecule: Caveolin-1 (endogenous in HEK293 cells) (from UniProt Q03135 1-178)

binding [3]: binds
binding [4]: binds
B1: Caveolin-1 (rat, endogenous in astrocytes) (protein, UniProt P41350 1-178)
chain: MSGGKYVDSEGHLYTVPIREQGNIYKPNNKAMADEVNEKQVYDAHTKEIDLVNRDPKHLNDDVVKIDFEDVIAEPEGTHSFDGIWKASFTTFTVTKYWFYRLLSTIFGIPMALIWGIYFAILSFLHIWAVVPCIKSFLIEIQCISRVYSIYVHTFCDPLFEAIGKIFSNIRISTQEEI

binding [5]: no binding
B2: Flotillin-1 (rat, endogenous in astrocytes) (protein, UniProt Q9Z1E1 1-428)
chain: MFFTCGPNEAMVVSGFCRSPPVMVAGGRVFVLPCIQQIQRISLNTLTLNVKSEKVYTRHGVPISVTGIAQVKIQGQNKEMLAAACQMFLGKTEAEIAHIALETLEGHQRAIMAHMTVEEIYKDRQKFSEQVFKVASSDLVNMGISVVSYTLKDIHDDQDYLHSLGKARTAQVQKDARIGEAEAKRDAGIREAKAKQEKVSAQCLSEIEMAKAQRDYELKKATYDIEVNTRRAQADLAYQLQVAKTKQQIEEQRVQVQVVERAQQVAVQEQEIARREKELEARVRKPAEAERYRLERLAEAEKAQLIMQAEAEAESVRMRGEAEAFAVGARARAEAEQMAKKAEAFQMYQEAAQLDMLLEKLPQVAEEISGPLTSANKITLVSSGSGTMGAAKVTGEVLDILSRLPESVERLTGVSISQVNHNKPLRTA
